Results are given in words; binding and its absence hold for the method and conditions named. Some entries that bind do so weakly or less than the wild type.
molecular target: Keap1-Maltose Binding Protein (MBP tag) (UniProt Q14145); test: TR-FRET competition

Protein sequences, listed by entry. Tags and fused reporters are not part of them. Residues count along the entry.
UniProt Q14145, residues 321-609: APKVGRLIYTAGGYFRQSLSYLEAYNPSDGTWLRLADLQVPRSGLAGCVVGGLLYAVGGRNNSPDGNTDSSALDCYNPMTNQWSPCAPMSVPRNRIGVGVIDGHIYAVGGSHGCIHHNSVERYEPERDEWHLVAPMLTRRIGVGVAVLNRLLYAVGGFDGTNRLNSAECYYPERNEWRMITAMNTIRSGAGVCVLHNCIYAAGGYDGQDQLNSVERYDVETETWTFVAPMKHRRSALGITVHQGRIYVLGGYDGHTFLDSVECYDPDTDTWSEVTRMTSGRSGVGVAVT

| Binder | binding |
| --- | --- |
| FDEETGEC (N-terminal acetyl; C-terminal amide; Phe meta-C-S-Cys cross-bridge) [Acetyl-Phe(m-&1)-Asp-Glu-Glu-Thr-Gly-Glu-Cys(&1)-NH2] | binds |
| LQWDEETGECLP (head-to-tail amide Pro-Leu; Trp indole C2-S-Cys cross-bridge) [&1Leu-Gln-Trp(indol-2-yl-&2)-Asp-Glu-Glu-Thr-Gly-Glu-Cys(&2)-Leu-Pro&1] | binds |
| LQCDEETGECLP (head-to-tail amide Pro-Leu; Cys-S-CH2-(1,4-phenylene)-CH2-S-Cys bridge) [{[&1Leu-Gln-Cys(&2)-Asp-Glu-Glu-Thr-Gly-Glu-Cys(&3)-Leu-Pro&1][&2(1,4-phenylenediyl)dimethylene&3]}] | binds |
| LQCDAETGECLP (head-to-tail amide Pro-Leu; Cys-S-CH2-(1,3-phenylene)-CH2-S-Cys bridge) [{[&1Leu-Gln-Cys(&2)-Asp-Ala-Glu-Thr-Gly-Glu-Cys(&3)-Leu-Pro&1][&2(1,3-phenylenediyl)dimethylene&3]}] | binds |
| CDAETGEC (N-terminal acetyl; C-terminal amide; Cys-S-CH2-(1,2-phenylene)-CH2-S-Cys bridge) [{[Acetyl-Cys(&1)-Asp-Ala-Glu-Thr-Gly-Glu-Cys(&2)-NH2][&1(1,2-phenylenediyl)dimethylene&2]}] | binds |
| LQCDEETGECLP (head-to-tail amide Pro-Leu; Cys-S-CH2-(1,3-phenylene)-CH2-S-Cys bridge) [{[&1Leu-Gln-Cys(&2)-Asp-Glu-Glu-Thr-Gly-Glu-Cys(&3)-Leu-Pro&1][&2(1,3-phenylenediyl)dimethylene&3]}] | binds |
| FDEETGEC (N-terminal acetyl; C-terminal amide; Phe para-C-S-Cys cross-bridge) [Acetyl-Phe(p-&1)-Asp-Glu-Glu-Thr-Gly-Glu-Cys(&1)-NH2] | binds |
| FDEETGEC (N-terminal acetyl; C-terminal amide; Phe ortho-C-S-Cys cross-bridge) [Acetyl-Phe(o-&1)-Asp-Glu-Glu-Thr-Gly-Glu-Cys(&1)-NH2] | binds |

Other lines, results leading:

| binding | Binder |
| --- | --- |
| binds | WDEETGEC (N-terminal acetyl; C-terminal amide; Trp indole C2-S-Cys cross-bridge) [Acetyl-Trp(indol-2-yl-&1)-Asp-Glu-Glu-Thr-Gly-Glu-Cys(&1)-NH2] |
| binds | LQWDEETGECLP (Trp indole C2-S-Cys cross-bridge) [H-Leu-Gln-Trp(indol-2-yl-&1)-Asp-Glu-Glu-Thr-Gly-Glu-Cys(&1)-Leu-Pro-OH] |
| binds | LQCDEETGECLP (Cys-S-CH2-(1,4-phenylene)-CH2-S-Cys bridge) [{[H-Leu-Gln-Cys(&1)-Asp-Glu-Glu-Thr-Gly-Glu-Cys(&2)-Leu-Pro-OH][&1(1,4-phenylenediyl)dimethylene&2]}] |
| binds | LQCDAETGECLP (Cys-S-CH2-(1,2-phenylene)-CH2-S-Cys bridge) [{[H-Leu-Gln-Cys(&1)-Asp-Ala-Glu-Thr-Gly-Glu-Cys(&2)-Leu-Pro-OH][&1(1,2-phenylenediyl)dimethylene&2]}] |
| binds | LQCDAETGECLP (Cys-S-CH2-(1,3-phenylene)-CH2-S-Cys bridge) [{[H-Leu-Gln-Cys(&1)-Asp-Ala-Glu-Thr-Gly-Glu-Cys(&2)-Leu-Pro-OH][&1(1,3-phenylenediyl)dimethylene&2]}] |
| binds | LQCDEETGECLP (Cys-S-CH2-(1,3-phenylene)-CH2-S-Cys bridge) [{[H-Leu-Gln-Cys(&1)-Asp-Glu-Glu-Thr-Gly-Glu-Cys(&2)-Leu-Pro-OH][&1(1,3-phenylenediyl)dimethylene&2]}] |

Source: patent publication US20200255478A1, “NOVEL COMPOUNDS ACTIVATING THE NRF2 PATHWAY” (Almirall, S.A., priority 2017, published 2020)
